PubChem BioAssay AID1508588 – Peter MacCallum Cancer Centre, 2020
Aim: 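Which gene losses make BRAF-mutant melanoma cells more responsive to vemurafenib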 (primary screen). System: human WM266.4 melanoma cells (BRAF V600 mutant). Reagents: siRNA pool against human genes, 40 nM. Duration: 96 h from transfection to read-out. Treatment: vemurafenib 300 nM (about IC25), added 48 h after transfection, for 48 h; comparison arm got DMSO vehicle only. Detection: 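Ratios to non-targeting siRNA for cell gain, counted as DAPI nuclei after minus before drug and averaged over two replicates, and for absorbance-read medium lactate per cell; both binned into fold-change classes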. Direction: cell gain with vemurafenib: higher = more cell gain than with non-targeting siRNA; lactate per cell with vemurafenib: higher = more lactate made per cell. Call rule: 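Enhancement is called by pairing each knock-down's vehicle-arm and drug-arm fold-change classes for viability or glycolysis; which class combinations qualify is not given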. Meaning of the calls: active = enhances vemurafenib effect; inactive = no enhancement seen.
Shown is an unselected part of about 18,000 deposited reagents. In the full data, 790 (4.4%) were called active. 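Calls rest on a combination of fold-change classes in drug and vehicle arms, not all shown here.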 Entries without a mark were called inactive.

For NKIRAS2 (GeneID 28511), the values are cell gain with vemurafenib 0.8; lactate per cell with vemurafenib 0.8.
Against XK (GeneID 7504) the deposit lists cell gain with vemurafenib 1.13; lactate per cell with vemurafenib 0.62.
For PRAMEF8 (GeneID 391002) the deposit lists cell gain with vemurafenib 1.16; lactate per cell with vemurafenib 0.97.
After knock-down of NBPF3 (GeneID 84224) the results were cell gain with vemurafenib 1.21; lactate per cell with vemurafenib 0.5.
Silencing of FAM131A (GeneID 131408) resulted in: cell gain with vemurafenib 1; lactate per cell with vemurafenib 0.7.
For ZBTB33 (GeneID 10009) the deposit lists cell gain with vemurafenib 0.15; lactate per cell with vemurafenib 0.97.
Silencing of AKR1B1 (GeneID 231) resulted in: cell gain with vemurafenib 0.27; lactate per cell with vemurafenib 1.14.
Against ABHD16B (GeneID 140701), the values are cell gain with vemurafenib 0.16 (active); lactate per cell with vemurafenib 0.12.
Knock-down of FITM1 (GeneID 161247) gave: cell gain with vemurafenib -0.02; lactate per cell with vemurafenib 4.95.
Against TBC1D10A (GeneID 83874) the deposit lists cell gain with vemurafenib 0.68; lactate per cell with vemurafenib 0.96.

Single entries from the entries so far.
For “cell gain with vemurafenib”, ABHD16B (GeneID 140701) reads 0.16 (active)
Under “lactate per cell with vemurafenib”, NKIRAS2 (GeneID 28511) is entered as 0.8

Additional reagents follow.
CPT1A (GeneID 1374) showed cell gain with vemurafenib 0.71; lactate per cell with vemurafenib 1.44.
With knock-down of ZNF322P1 (GeneID 387328), the screen gave cell gain with vemurafenib 0.17; lactate per cell with vemurafenib 1.44.
OR52N1 (GeneID 79473) gave cell gain with vemurafenib 0.87; lactate per cell with vemurafenib 0.68.
Silencing of MMS19 (GeneID 64210) came out at: cell gain with vemurafenib 0.77; lactate per cell with vemurafenib 1.09.
With knock-down of RAP1GAP2 (GeneID 23108) the results were cell gain with vemurafenib 0.58; lactate per cell with vemurafenib 0.21.
After knock-down of METTL17 (GeneID 64745) the results were cell gain with vemurafenib 0.83; lactate per cell with vemurafenib 0.71.
With knock-down of CRYGS (GeneID 1427), the record shows cell gain with vemurafenib 0.7; lactate per cell with vemurafenib 0.6.
After knock-down of CSDC2 (GeneID 27254), the record shows cell gain with vemurafenib 0.16; lactate per cell with vemurafenib 0.55.
With knock-down of TINF2 (GeneID 26277), the record shows cell gain with vemurafenib -0.02; lactate per cell with vemurafenib 2.02.
With knock-down of GOLGA2P5 (GeneID 55592), the screen gave cell gain with vemurafenib 0.32; lactate per cell with vemurafenib 1.26.
Knock-down of GPR83 (GeneID 10888) came out at: cell gain with vemurafenib 0.67; lactate per cell with vemurafenib 0.88.
Silencing of EAF2 (GeneID 55840) came out at: cell gain with vemurafenib 1.01; lactate per cell with vemurafenib 1.6.
For MT3 (GeneID 4504), the entry reads cell gain with vemurafenib 0.72; lactate per cell with vemurafenib 0.56.
Against PSMB1 (GeneID 5689), the entry reads cell gain with vemurafenib 0.01; lactate per cell with vemurafenib 1.46.
Depletion of GPR22 (GeneID 2845) came out at: cell gain with vemurafenib 0.94; lactate per cell with vemurafenib 0.42.
After knock-down of DRC4 (GeneID 2622), the screen gave cell gain with vemurafenib 0.76; lactate per cell with vemurafenib 1.4.
Against GRIP1 (GeneID 23426) the deposit lists cell gain with vemurafenib 0.21; lactate per cell with vemurafenib 0.92.
